Values of other authors in patent US20180325164A1, “LIQUID FORMULATION” (JAYTEE BIOSCIENCES LIMITED, priority 2015, published 2018).

For C=C(C)[C@@H]1CCC(C)=C[C@H]1c1c(O)cc(CCCCC)cc1O [CBD, 2-[(1R, 6R)-6-isopropenyl-3-methylcyclohex-2-en-1yl]-5-pentylbenzene-1,3-diol], the “solubility in organic solvents” value (organic solvents, including propylene glycol) is given as “soluble” and the solubility in water (water) is given as “largely insoluble”.
